From publication PMC10163288
This is one part of the list.

B1: il10ra_site1_normal_mot_HHH_b2_02337_000000026_0001_38_52_H_._HHH_b2_03336_0001_0000100004_0000001_0 (protein)
chain: SSSSSSDVEELLEEAEELAERGDPRWSRVLQEAVRHAIELGDAELLREIWELVQEIAKSSSSSSS
B2: il10ra_site1_normal_mot_HHH_b2_00441_000000147_0001_1_18_H_._HHH_b2_04136_0001_0000100001_0000001_0_af2pred_0001 (protein)
chain: SSSSSRDHELLEKTLEFVKFLIEQGDPEAARFLLRAAKQLAERAGDEEIQELLEELEELLNSSSS
B3: il10ra_site1_sap_12_mot_HHH_b2_05214_af2_000000028_0001_22_37_H_._HHH_b2_08161_0001_0000500026_0000002_0_0001 (protein)
chain: SSSSSDVEELLEEARELIEDGDPEEALRVLQEAERFIYRAGDAELLRELWELLEELLREGSSSSS
B4: il10ra_site1_sap_24_mot_HHH_b1_07100_000000193_0001_1_18_H_._HHH_b1_05358_0001_0000200004_0000001_0_0001_af2pred_0001 (protein)
chain: SSSSTTEQLVELALEAAKIALERGDPEKAREILEIAKLLAELANNEELKEKIEELEEEVENSSSS
B5: il10ra_site1_normal_mot_HHH_b2_00475_000000107_0001_44_57_H_._HHH_b1_06566_af2_0001_0000400028_0000001_0 (protein)
chain: SSSSSDEVAQLLFRALRLLYEGNPEEAEEVAREAEELARELGDEELLRYVEILKHFIEAHSSSSS
B6: il10ra_site1_sap_16_mot_HHH_b2_05532_000000217_0001_1_18_H_._HHH_b2_01830_0001_0000200013_0000001_0_0001 (protein)
chain: SSSSSREEVEELLEELERLLEEGDQERFIRLAQEIVQLAIQVSDPELLQALWRLVEEFGRKSSSS
B7: il10ra_site1_sap_21_mot_HHH_b2_01397_000000078_0001_23_39_H_._118502477c40609e6006f550458cdfaf_0001_0001_0000400042_0000002_0_0001 (protein)
chain: SSSSDEEQERLLELLREIFRLALRGDPEEAEKLLKEVHELAEELGDEKAREMVEDLEATLRSSSS
B8: il10ra_site1_normal_mot_HHH_b2_07938_000000207_0001_42_56_H_._HHH_b1_00305_af2_0001_0000200006_0000001_0_af2pred_0001 (protein)
chain: SSSSSSELEEHIEELVEKFGLSEEQQKRLEQLAEALKRRGISEEEIRRILEIMAKLLALGSSSSS
B9: il10ra_site1_normal_mot_HHH_b2_02116_af2_000000165_0001_41_55_H_._HHH_b2_07253_af2_0001_0000300016_0000002_0_af2pred_0001 (protein)
chain: SSSSDAEKEAAELFIRADRLLREGDEEEVEELIRQIKELAEENNDKLIRVLARILEQALGSSSSS
B10: il10ra_site1_sap_17_mot_HHH_b1_05434_000000022_0001_39_52_H_._HHH_b1_07795_af2_0001_0000300012_0000002_0_0001_af2pred_0001 (protein)
chain: SSSSDEEAAHRAFRLVRKALQISDPEEVEELLREAHELAEEANNRLLLRSIEIALKETELSSSSS
B11: il10ra_site1_normal_mot_8756ee2cf497b5429c717dfc0c0bcfd6_0001_000000186_0001_1_13_H_._HHH_b1_06454_0001_0000300028_0000001_0 (protein)
chain: SSSSSSSDVYELLREAAELNHEGNPEEARKVLEEAEELAEELGNDVFRAQIEYMLELASSSSSSS
B12: il10ra_site1_normal_mot_HHH_b2_02337_000000026_0001_38_52_H_._HHH_b1_01900_0001_0000500060_0000001_1 (protein)
chain: SSSSSEDEERVRELLEEAEEYAEQGDPEKVARLLQEATRIALQNQNQELLQLVWKVVKKLASSSS
B13: il10ra_site1_sap_23_mot_0eddeacbb14b769e73e254714f31e2f9_0001_af2_000000203_0001_37_51_H_._HHH_b2_01631_0001_0000100002_0000001_0_0001_af2pred_dldesign_0_af2pre … (protein)
chain: SSSSSPKEEEARRLIAEFRAAAAAGDEARARELYVRAARLIQELGNKDLWAELTAAAVAALSSSS
B14: il10ra_site1_normal_mot_HHH_b2_08186_000000021_0001_43_56_H_._HHH_b1_02914_0001_0000400023_0000001_0 (protein)
chain: SSSSDREERIQELLEEAEELAKEGNPEEAARLLQEAIRLAFELGDEELLKEIWEVLRKVASSSSS
B15: il10ra_site1_sap_18_mot_HHH_b2_01494_af2_000000274_0001_37_50_H_._HHH_b2_08057_0001_0000700022_0000002_0_0001_af2pred_0001 (protein)
chain: SSSSSDEEDERKVEELLEEAERVSREEASELLFKALRIAAELKNEELLRLILEVAIRIVSSSSSS
B16: il10ra_site1_sap_21_mot_HHH_b2_03220_af2_000000223_0001_23_40_H_._HHH_b1_06685_af2_0001_0001000025_0000001_0_0001_af2pred_0001 (protein)
chain: SSSSSDLREELEELLEELKEHGDPELREELRRLLLEAARLALEKNDEELAHLAVEASQLLSSSSS
B17: il10ra_site1_normal_mot_8756ee2cf497b5429c717dfc0c0bcfd6_0001_000000186_0001_1_13_H_._HHH_b2_07537_0001_0000200009_0000001_1 (protein)
chain: SSSSDLSERVMELLRKAAELENEGNPEEAEELLEEAEELARENNNDVLLHNVEYLLRVIQRSSSS
B18: il10ra_site1_normal_mot_HHH_b2_06752_000000207_0001_1_21_H_._HHH_b2_04870_af2_0001_0000500026_0000001_0_af2pred_0001 (protein)
chain: SSSSDVHKEIVEAARLALEVARRLGDEERVKQALRLLKLLAEQLNDEELKEFVEEVEEELSSSSS
B19: il10ra_site1_sap_16_mot_HHH_b2_07488_000000216_0001_1_17_H_._HHH_b1_00459_0001_0000500040_0000001_0_0001 (protein)
chain: SSSSDRRRRVYELLRRAVELDLEGDEEEAEEVLREAQELAEEANNPMMLHQVRFLLEILEGSSSS
B20: il10ra_site1_sap_24_mot_HHH_b1_02809_af2_000000277_0001_40_57_H_._HHH_b1_04583_af2_0001_0000100001_0000001_0_0001_af2pred_0001 (protein)
chain: SSSSSSAEWLVRLALLAVRLLAKAGDPEKAREALEIARRLAEQGNNEELEEEIEKVEEELNSSSS
B21: il10ra_site1_sap_25_mot_HHH_b1_06914_000000280_0001_1_18_H_._HHH_b2_00342_af2_0001_0000400017_0000001_0_0001 (protein)
chain: SSSDLEERVAELLFEALRLLAEGDEEEARELIEEAEHLARERNDEELLRYVEILKRFLESWSSSS
B22: il10ra_site1_sap_19_mot_HHH_b2_07144_000000289_0001_1_18_H_._HHH_b2_05779_0001_0000100016_0000002_0_0001 (protein)
chain: SSSSDRTQEIYELLREAVELHHEGNPEEAEKLLREAEELAEELGNRILEWVIKWLLEKLRQSSSS
B23: il10ra_site1_normal_mot_HHH_b2_00984_000000042_0001_1_20_H_._HHH_b2_07840_0001_0000400040_0000001_0 (protein)
chain: SSSSSSDLEELVEELEEAVREGDTERASQIAQEAVRLAHRLRDQEALQELWRLIQLVASSSSSSS
B24: il10ra_site1_normal_mot_HHH_b2_00984_000000042_0001_1_20_H_._HHH_b2_01469_af2_0001_0000200012_0000002_0 (protein)
chain: SSSSDEEELEEKVKELLEEAKRISDPRERAEVLQRATHHAIELQDAELLQEVWEVIRRLASSSSS
B25: il10ra_site1_normal_mot_HHH_b2_05797_000000294_0001_1_19_H_._HHH_b2_04237_0001_0000100005_0000002_0 (protein)
chain: SSSSDLEEYVRAARRFAEALLEAGDPEAARRILRLLLEVVEREGNEELEELLRELLERVEGSSSS
B26: il10ra_site1_sap_23_mot_HHH_b1_02896_af2_000000065_0001_1_17_H_._HHH_b2_02550_af2_0001_0000300010_0000002_0_0001_af2pred_0001 (protein)
chain: SSSSSDDAERAIRILLRAAKQIEDEERVKLAIRFAEALAESAGNEELVEELRQILEELRSSSSSS
B27: il10ra_site1_sap_29_mot_HHH_b1_01513_af2_000000021_0001_1_16_H_._HHH_b2_01114_0001_0000200011_0000001_0_0001_af2pred_0001 (protein)
chain: SSSSDIHAEAAFRLFKAALEDAHRRGDEEAARAAALAAELSLEYLGNPELAEQLREIVEELSSSS
B28: il10ra_site1_sap_21_mot_HHH_b2_05111_af2_000000002_0001_42_56_H_._HHH_b1_00330_0001_0000200015_0000001_0_0001 (protein)
chain: SSSSSRYERVKKLLEEVLELQRRGNKEEAEELLEELLKELEEAGNPVMLFSVEHLLRIVRDSSSS
B29: il10ra_site1_sap_19_mot_4271555111f650dfcc09ceace45bed71_0001_1_000000133_0001_37_51_H_._a6dc95095f26d3d149f38d2607f81e7c_0001_af2_0001_0000500022_0000001_0_000 … (protein)
chain: SSSSDEEVEEEVERLLEEAEKIEDEHEWAQLLFEAMRLAYENRNEELAEEIDRVAAEWLNSSSSS
B30: il10ra_site1_normal_mot_HHH_b1_00103_000000293_0001_1_15_H_._HHH_b2_03403_0001_0000100001_0000003_0_af2pred_0001 (protein)
chain: SSSSSSSKERKEVLKLLEKALRIDDPEEAREVVQEAVELAEEAGDEHLLKLARELLRQLSSSSSS
B31: il10ra_site1_sap_15_mot_HHH_b1_05757_000000171_0001_42_57_H_._HHH_b1_03576_0001_0000800028_0000001_0_0001 (protein)
chain: SSSSSSDREAFELLEKAAEISREDPEEAEEILREAREIAEEAGNRLLAMQIEFMLKRISSSSSSS
B32: il10ra_site1_normal_mot_HHH_b2_07006_000000108_0001_1_19_H_._HHH_b1_07927_af2_0001_0000200003_0000001_0 (protein)
chain: SSSSSNDEVYELLRELIELVKEGDEEQFERLVEEIRKLIEELGNEVLRHILEFLERLFHSSSSSS
B33: il10ra_site1_normal_mot_HHH_b2_05813_000000266_0001_1_19_H_._ems_3hC_1310_0001_af2_0001_0000100001_0000002_0_af2pred_0001 (protein)
chain: SETEELIILLARAAAEAEKRNDEEAARLLLRAAVLLHRALLRNDEELQERANEFAKKVIEEAESS
B34: il10ra_site1_sap_25_mot_HHH_b1_05609_af2_000000134_0001_1_18_H_._HHH_b2_05552_0001_0000400043_0000002_0_0001 (protein)
chain: SSSSSSSEYREAYKLIEEAFKIEDEEEVRRLVEEALELAEEGNNWVALMAIRHALKVLESSSSSS
B35: il10ra_site1_normal_mot_HHH_b1_01082_af2_000000031_0001_3_19_H_._ems_3hC_559_0001_0000100003_0000002_0 (protein)
chain: SEELYEFLKEVIEELKEAWENNDPEKVEEIAEEAREVLEKLAKTENLREHAERQVEFLARRLKSS
B36: il10ra_site1_normal_mot_HHH_b1_06057_000000129_0001_22_38_H_._HHH_b1_06187_0001_0000100002_0000001_0 (protein)
chain: SSSSTLEESVKFALRVARQQREEGDPEAARELLEKLLELLKEAGDEELFEEVERLLEELEKSSSS
B37: il10ra_site1_sap_25_mot_HHH_b2_08143_000000031_0001_38_55_H_._HHH_b1_08602_af2_0001_0000800026_0000001_0_0001 (protein)
chain: SSSSSDVEEIFELIEEILRLIKDGDEEEARELLEELRELIEKAGSWVFRYSLEVLERELNSSSSS

biological target: il10ra, Q13651; test: yeast display titration

Apparent Kd, inactive:
B1 no binding seen, B2 no binding seen, B3 no binding seen, B4 no binding seen, B5 no binding seen, B6 no binding seen, B7 no binding seen, B8 no binding seen, B9 no binding seen, B10 no binding seen, B11 no binding seen, B12 no binding seen, B13 no binding seen, B14 no binding seen, B15 no binding seen, B16 no binding seen, B17 no binding seen, B18 no binding seen, B19 no binding seen, B20 no binding seen, B21 no binding seen, B22 no binding seen, B23 no binding seen, B24 no binding seen, B25 no binding seen, B26 no binding seen, B27 no binding seen, B28 no binding seen, B29 no binding seen, B30 no binding seen, B31 no binding seen, B32 no binding seen, B33 no binding seen, B34 no binding seen, B35 no binding seen, B36 no binding seen, B37 no binding seen
